Experimental findings from publication PMC5206742 are described below.

By UniProt entry, the sequences of proteins in these tests, tags left out.
UniProt Q8K2F0: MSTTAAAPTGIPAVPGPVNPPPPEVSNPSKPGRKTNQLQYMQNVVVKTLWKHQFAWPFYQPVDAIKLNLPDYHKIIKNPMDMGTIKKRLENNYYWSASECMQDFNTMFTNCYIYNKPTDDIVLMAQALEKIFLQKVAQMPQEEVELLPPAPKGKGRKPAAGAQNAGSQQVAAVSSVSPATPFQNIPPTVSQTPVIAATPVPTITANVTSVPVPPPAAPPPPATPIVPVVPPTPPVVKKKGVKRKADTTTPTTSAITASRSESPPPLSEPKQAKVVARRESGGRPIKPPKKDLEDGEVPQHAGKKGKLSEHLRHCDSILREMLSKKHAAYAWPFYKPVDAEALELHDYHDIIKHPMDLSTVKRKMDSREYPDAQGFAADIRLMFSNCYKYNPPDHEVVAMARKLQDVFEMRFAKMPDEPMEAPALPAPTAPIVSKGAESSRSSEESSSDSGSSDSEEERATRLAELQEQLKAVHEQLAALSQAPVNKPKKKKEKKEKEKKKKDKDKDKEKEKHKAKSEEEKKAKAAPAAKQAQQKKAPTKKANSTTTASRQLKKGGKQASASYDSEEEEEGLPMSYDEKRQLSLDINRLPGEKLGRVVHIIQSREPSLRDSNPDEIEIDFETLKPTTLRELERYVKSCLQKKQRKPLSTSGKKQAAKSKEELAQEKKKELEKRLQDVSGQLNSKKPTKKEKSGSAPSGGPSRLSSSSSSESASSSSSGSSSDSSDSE

This experiment deals with Bromodomain protein 3 (Brd3), endogenous (mouse (endogenous in RAW264.7)) (UniProt Q8K2F0). Description: co-IP.

These are yes or no findings as the source states them, for the method shown. In cells and extracts the contact can be indirect. Some binding calls cover weakened binding; strength is not graded here.

B1: IRF3, endogenous (protein, UniProt P70671 1-419)
chain: METPKPRILPWLVSQLDLGQLEGVAWLDESRTRFRIPWKHGLRQDAQMADFGIFQAWAEASGAYTPGKDKPDVSTWKRNFRSALNRKEVLRLAADNSKDPYDPHKVYEFVTPGARDFVHLGASPDTNGKSSLPHSQENLPKLFDGLILGPLKDEGSSDLAIVSDPSQQLPSPNVNNFLNPAPQENPLKQLLAEEQWEFEVTAFYRGRQVFQQTLFCPGGLRLVGSTADMTLPWQPVTLPDPEGFLTDKLVKEYVGQVLKGLGNGLALWQAGQCLWAQRLGHSHAFWALGEELLPDSGRGPDGEVHKDKDGAVFDLRPFVADLIAFMEGSGHSPRYTLWFCMGEMWPQDQPWVKRLVMVKVVPTCLKELLEMAREGGASSLKTVDLHISNSQPISLTSDQYKAYLQDLVEDMDFQATGNI
Take B1: the binding result is listed as “binds”.
